These are yes or no findings as the source states them, for the method shown. Binding seen in cells or lysates may run through a third protein. Some results given as binding are weak or reduced against the parent protein; the word gives no strength. Sequences can lack the tags named with a protein.
T1: Myc-tagged edited KPC1 (p.M8V, A22G RNA editing) (human) (UniProt Q5XPI4)
T1 sequence: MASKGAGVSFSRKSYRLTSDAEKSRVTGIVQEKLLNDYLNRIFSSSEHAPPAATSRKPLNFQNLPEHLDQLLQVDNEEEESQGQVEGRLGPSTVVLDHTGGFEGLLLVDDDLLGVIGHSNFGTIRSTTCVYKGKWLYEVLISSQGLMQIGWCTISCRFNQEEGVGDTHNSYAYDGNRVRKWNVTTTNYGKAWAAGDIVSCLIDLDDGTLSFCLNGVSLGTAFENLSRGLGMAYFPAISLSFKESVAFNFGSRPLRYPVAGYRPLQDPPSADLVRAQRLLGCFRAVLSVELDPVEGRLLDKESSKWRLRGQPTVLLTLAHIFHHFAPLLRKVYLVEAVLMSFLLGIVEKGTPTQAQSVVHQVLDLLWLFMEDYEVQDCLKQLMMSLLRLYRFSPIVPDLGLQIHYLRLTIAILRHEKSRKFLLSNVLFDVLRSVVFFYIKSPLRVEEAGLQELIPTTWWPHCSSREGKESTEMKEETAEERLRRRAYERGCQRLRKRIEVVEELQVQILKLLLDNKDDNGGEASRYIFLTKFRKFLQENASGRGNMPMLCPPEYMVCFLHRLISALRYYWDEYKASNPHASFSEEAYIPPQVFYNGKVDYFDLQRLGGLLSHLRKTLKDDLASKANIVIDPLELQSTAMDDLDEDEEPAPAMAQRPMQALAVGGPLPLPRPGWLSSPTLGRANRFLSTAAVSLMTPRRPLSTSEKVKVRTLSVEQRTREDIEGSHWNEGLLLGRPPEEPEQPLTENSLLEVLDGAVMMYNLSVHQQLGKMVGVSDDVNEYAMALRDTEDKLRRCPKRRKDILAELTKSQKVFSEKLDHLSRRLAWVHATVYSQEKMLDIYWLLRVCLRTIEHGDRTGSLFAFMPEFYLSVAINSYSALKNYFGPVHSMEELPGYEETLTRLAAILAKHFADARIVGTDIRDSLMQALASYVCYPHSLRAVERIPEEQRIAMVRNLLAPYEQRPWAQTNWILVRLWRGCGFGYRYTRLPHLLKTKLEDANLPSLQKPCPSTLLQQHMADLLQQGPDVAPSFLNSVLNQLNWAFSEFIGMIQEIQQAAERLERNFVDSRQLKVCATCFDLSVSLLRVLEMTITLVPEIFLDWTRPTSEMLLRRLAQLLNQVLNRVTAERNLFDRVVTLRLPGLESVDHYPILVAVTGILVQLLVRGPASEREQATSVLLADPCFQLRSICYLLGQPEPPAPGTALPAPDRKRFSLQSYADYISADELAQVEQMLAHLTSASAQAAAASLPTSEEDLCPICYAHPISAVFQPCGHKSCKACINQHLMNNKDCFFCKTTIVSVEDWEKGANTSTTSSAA

Protein sequences, listed by entry. Tags and fused reporters are not part of them.
UniProt P19838: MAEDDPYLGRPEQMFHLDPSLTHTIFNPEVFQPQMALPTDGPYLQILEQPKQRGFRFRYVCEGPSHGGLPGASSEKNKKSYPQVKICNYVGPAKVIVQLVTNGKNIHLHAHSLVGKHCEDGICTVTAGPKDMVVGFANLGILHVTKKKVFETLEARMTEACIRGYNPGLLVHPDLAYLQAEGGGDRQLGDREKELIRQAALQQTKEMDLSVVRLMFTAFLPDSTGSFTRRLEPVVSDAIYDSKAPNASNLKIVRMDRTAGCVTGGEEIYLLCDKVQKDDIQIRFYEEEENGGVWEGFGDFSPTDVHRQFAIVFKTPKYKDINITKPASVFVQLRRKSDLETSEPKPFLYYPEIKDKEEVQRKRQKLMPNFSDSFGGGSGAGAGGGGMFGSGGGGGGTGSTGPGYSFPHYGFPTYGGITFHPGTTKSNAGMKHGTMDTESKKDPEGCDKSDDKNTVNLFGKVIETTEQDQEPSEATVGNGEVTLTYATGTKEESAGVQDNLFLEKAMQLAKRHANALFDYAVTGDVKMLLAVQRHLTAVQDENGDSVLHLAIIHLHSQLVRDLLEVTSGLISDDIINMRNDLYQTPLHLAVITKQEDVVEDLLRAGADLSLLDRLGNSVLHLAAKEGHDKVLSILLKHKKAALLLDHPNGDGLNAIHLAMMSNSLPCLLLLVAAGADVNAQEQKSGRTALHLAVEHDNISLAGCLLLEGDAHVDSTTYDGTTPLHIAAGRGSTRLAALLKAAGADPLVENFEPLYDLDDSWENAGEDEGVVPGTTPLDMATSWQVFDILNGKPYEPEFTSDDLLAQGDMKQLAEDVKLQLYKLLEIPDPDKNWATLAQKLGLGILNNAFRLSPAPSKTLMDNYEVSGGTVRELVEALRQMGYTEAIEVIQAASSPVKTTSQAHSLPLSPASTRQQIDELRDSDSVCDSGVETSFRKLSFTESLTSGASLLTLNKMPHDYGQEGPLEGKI

T2: Myc-tagged wild-type KPC1 (Kip1 ubiquitination-promoting complex 1) (human) (UniProt Q5XPI4)
T2 sequence: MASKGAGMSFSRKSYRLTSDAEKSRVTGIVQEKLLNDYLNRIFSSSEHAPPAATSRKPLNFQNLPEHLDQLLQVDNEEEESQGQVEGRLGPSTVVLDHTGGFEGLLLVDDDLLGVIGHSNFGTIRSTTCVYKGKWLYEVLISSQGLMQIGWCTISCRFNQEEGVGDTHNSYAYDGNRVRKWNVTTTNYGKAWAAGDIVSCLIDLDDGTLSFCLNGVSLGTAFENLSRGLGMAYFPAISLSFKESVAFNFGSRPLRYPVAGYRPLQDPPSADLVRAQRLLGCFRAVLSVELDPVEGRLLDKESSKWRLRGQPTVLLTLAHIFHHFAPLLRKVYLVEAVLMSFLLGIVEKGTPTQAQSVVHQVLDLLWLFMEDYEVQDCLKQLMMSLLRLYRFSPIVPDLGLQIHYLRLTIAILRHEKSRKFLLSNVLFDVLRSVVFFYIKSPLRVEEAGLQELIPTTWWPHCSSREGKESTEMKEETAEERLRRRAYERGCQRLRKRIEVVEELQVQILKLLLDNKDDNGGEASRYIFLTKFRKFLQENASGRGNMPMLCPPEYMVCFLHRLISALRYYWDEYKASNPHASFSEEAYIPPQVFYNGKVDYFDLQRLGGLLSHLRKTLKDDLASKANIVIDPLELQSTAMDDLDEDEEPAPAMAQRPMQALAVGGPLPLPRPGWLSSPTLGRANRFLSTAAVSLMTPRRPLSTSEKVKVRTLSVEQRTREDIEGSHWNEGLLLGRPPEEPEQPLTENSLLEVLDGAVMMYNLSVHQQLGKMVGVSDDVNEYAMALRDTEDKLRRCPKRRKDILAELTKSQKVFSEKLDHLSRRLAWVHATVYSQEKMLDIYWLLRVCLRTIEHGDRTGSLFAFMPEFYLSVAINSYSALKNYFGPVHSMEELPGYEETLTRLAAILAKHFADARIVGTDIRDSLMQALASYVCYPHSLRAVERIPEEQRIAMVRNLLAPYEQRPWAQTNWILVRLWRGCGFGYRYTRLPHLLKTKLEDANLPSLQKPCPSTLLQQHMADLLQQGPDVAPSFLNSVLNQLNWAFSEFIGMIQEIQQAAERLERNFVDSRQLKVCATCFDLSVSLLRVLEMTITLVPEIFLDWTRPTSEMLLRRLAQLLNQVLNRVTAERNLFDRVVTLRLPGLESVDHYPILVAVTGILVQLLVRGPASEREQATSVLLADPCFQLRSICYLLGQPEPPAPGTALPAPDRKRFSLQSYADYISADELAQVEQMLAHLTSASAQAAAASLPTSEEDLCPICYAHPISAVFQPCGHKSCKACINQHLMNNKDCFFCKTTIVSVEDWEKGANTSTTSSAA


Experiments:
[1] = biological target: T1, Myc-tagged edited KPC1 (p.M8V, A22G RNA editing) (human); assay: co-IP; QBC939 and RBE cells co-transfected with Myc-KPC1-WT or Myc-KPC1-EDT and Flag-p105; lysates in HEPES buffer (20 mM HEPES pH 7.2, 50 mM NaCl, 0.5% Triton X-100); Myc-KPC1-WT or Myc-KPC1-EDT as bait, precipitated with anti-Myc and protein A/G-agarose at 4 °C; blot with anti-Flag
[2] = biological target: T2, Myc-tagged wild-type KPC1 (Kip1 ubiquitination-promoting complex 1) (human); assay: as above
Flag-tagged NF-κB1 p105 = Flag-tagged NF-κB1 p105 (UniProt P19838); assay: co-IP; QBC939 and RBE cells co-transfected with Myc-KPC1-WT or Myc-KPC1-EDT and Flag-p105; lysates in HEPES buffer (20 mM HEPES pH 7.2, 50 mM NaCl, 0.5% Triton X-100); Flag-p105 as bait, precipitated with anti-Flag and protein A/G-agarose at 4 °C; blot with anti-Myc

binding [1]	binding (Flag-tagged NF-κB1 p105)	Molecule	binding [2]
binds		Flag-tagged NF-κB1 p105 (from UniProt P19838 1-968)	binds
	binds	Myc-tagged wild-type KPC1 (Kip1 ubiquitination-promoting complex 1) (enzyme, UniProt Q5XPI4-1 1-1314) MASKGAGMSFSRKSYRLTSDAEKSRVTGIVQEKLLNDYLNRIFSSSEHAPPAATSRKPLNFQNLPEHLDQLLQVDNEEEESQGQVEGRLGPSTVVLDHTGGFEGLLLVDDDLLGVIGHSNFGTIRSTTCVYKGKWLYEVLISSQGLMQIGWCTISCRFNQEEGVGDTHNSYAYDGNRVRKWNVTTTNYGKAWAAGDIVSCLIDLDDGTLSFCLNGVSLGTAFENLSRGLGMAYFPAISLSFKESVAFNFGSRPLRYPVAGYRPLQDPPSADLVRAQRLLGCFRAVLSVELDPVEGRLLDKESSKWRLRGQPTVLLTLAHIFHHFAPLLRKVYLVEAVLMSFLLGIVEKGTPTQAQSVVHQVLDLLWLFMEDYEVQDCLKQLMMSLLRLYRFSPIVPDLGLQIHYLRLTIAILRHEKSRKFLLSNVLFDVLRSVVFFYIKSPLRVEEAGLQELIPTTWWPHCSSREGKESTEMKEETAEERLRRRAYERGCQRLRKRIEVVEELQVQILKLLLDNKDDNGGEASRYIFLTKFRKFLQENASGRGNMPMLCPPEYMVCFLHRLISALRYYWDEYKASNPHASFSEEAYIPPQVFYNGKVDYFDLQRLGGLLSHLRKTLKDDLASKANIVIDPLELQSTAMDDLDEDEEPAPAMAQRPMQALAVGGPLPLPRPGWLSSPTLGRANRFLSTAAVSLMTPRRPLSTSEKVKVRTLSVEQRTREDIEGSHWNEGLLLGRPPEEPEQPLTENSLLEVLDGAVMMYNLSVHQQLGKMVGVSDDVNEYAMALRDTEDKLRRCPKRRKDILAELTKSQKVFSEKLDHLSRRLAWVHATVYSQEKMLDIYWLLRVCLRTIEHGDRTGSLFAFMPEFYLSVAINSYSALKNYFGPVHSMEELPGYEETLTRLAAILAKHFADARIVGTDIRDSLMQALASYVCYPHSLRAVERIPEEQRIAMVRNLLAPYEQRPWAQTNWILVRLWRGCGFGYRYTRLPHLLKTKLEDANLPSLQKPCPSTLLQQHMADLLQQGPDVAPSFLNSVLNQLNWAFSEFIGMIQEIQQAAERLERNFVDSRQLKVCATCFDLSVSLLRVLEMTITLVPEIFLDWTRPTSEMLLRRLAQLLNQVLNRVTAERNLFDRVVTLRLPGLESVDHYPILVAVTGILVQLLVRGPASEREQATSVLLADPCFQLRSICYLLGQPEPPAPGTALPAPDRKRFSLQSYADYISADELAQVEQMLAHLTSASAQAAAASLPTSEEDLCPICYAHPISAVFQPCGHKSCKACINQHLMNNKDCFFCKTTIVSVEDWEKGANTSTTSSAA	
	binds	Myc-tagged edited KPC1 (p.M8V, A22G RNA editing) (enzyme, UniProt Q5XPI4-1 1-1314) MASKGAGVSFSRKSYRLTSDAEKSRVTGIVQEKLLNDYLNRIFSSSEHAPPAATSRKPLNFQNLPEHLDQLLQVDNEEEESQGQVEGRLGPSTVVLDHTGGFEGLLLVDDDLLGVIGHSNFGTIRSTTCVYKGKWLYEVLISSQGLMQIGWCTISCRFNQEEGVGDTHNSYAYDGNRVRKWNVTTTNYGKAWAAGDIVSCLIDLDDGTLSFCLNGVSLGTAFENLSRGLGMAYFPAISLSFKESVAFNFGSRPLRYPVAGYRPLQDPPSADLVRAQRLLGCFRAVLSVELDPVEGRLLDKESSKWRLRGQPTVLLTLAHIFHHFAPLLRKVYLVEAVLMSFLLGIVEKGTPTQAQSVVHQVLDLLWLFMEDYEVQDCLKQLMMSLLRLYRFSPIVPDLGLQIHYLRLTIAILRHEKSRKFLLSNVLFDVLRSVVFFYIKSPLRVEEAGLQELIPTTWWPHCSSREGKESTEMKEETAEERLRRRAYERGCQRLRKRIEVVEELQVQILKLLLDNKDDNGGEASRYIFLTKFRKFLQENASGRGNMPMLCPPEYMVCFLHRLISALRYYWDEYKASNPHASFSEEAYIPPQVFYNGKVDYFDLQRLGGLLSHLRKTLKDDLASKANIVIDPLELQSTAMDDLDEDEEPAPAMAQRPMQALAVGGPLPLPRPGWLSSPTLGRANRFLSTAAVSLMTPRRPLSTSEKVKVRTLSVEQRTREDIEGSHWNEGLLLGRPPEEPEQPLTENSLLEVLDGAVMMYNLSVHQQLGKMVGVSDDVNEYAMALRDTEDKLRRCPKRRKDILAELTKSQKVFSEKLDHLSRRLAWVHATVYSQEKMLDIYWLLRVCLRTIEHGDRTGSLFAFMPEFYLSVAINSYSALKNYFGPVHSMEELPGYEETLTRLAAILAKHFADARIVGTDIRDSLMQALASYVCYPHSLRAVERIPEEQRIAMVRNLLAPYEQRPWAQTNWILVRLWRGCGFGYRYTRLPHLLKTKLEDANLPSLQKPCPSTLLQQHMADLLQQGPDVAPSFLNSVLNQLNWAFSEFIGMIQEIQQAAERLERNFVDSRQLKVCATCFDLSVSLLRVLEMTITLVPEIFLDWTRPTSEMLLRRLAQLLNQVLNRVTAERNLFDRVVTLRLPGLESVDHYPILVAVTGILVQLLVRGPASEREQATSVLLADPCFQLRSICYLLGQPEPPAPGTALPAPDRKRFSLQSYADYISADELAQVEQMLAHLTSASAQAAAASLPTSEEDLCPICYAHPISAVFQPCGHKSCKACINQHLMNNKDCFFCKTTIVSVEDWEKGANTSTTSSAA	

— PMC9730630
